{"source": "PubChem BioAssay AID652243, Drosophila RNAi Screening Center – 2013", "test": "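Fly regulators of androgen-dependent reporter output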 (primary screen)", "cell system": "Drosophila S2R+ cells", "reagent": "long dsRNA against Drosophila genes", "duration": "72 h (48 h, then 24 h hormone)", "conditions": "synthetic androgen R1881 at 10 nM for 24 h", "detection": "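Per-well raw luminescence of the androgen-driven firefly reporter and of the Renilla control, two replicates each, without normalisation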", "reading the numbers": "firefly reporter light: higher = more light from androgen-responsive reporter; Renilla control light: higher = more constitutive control signal (cell number, transfection)", "rule for the call": "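Across duplicate plates, a knock-down whose log firefly/Renilla ratio shifted a set fold down or up from the GFP/LacZ control mean was a hit; the downward cut appears as both 1.5 and 3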", "calls": "active = hit: reporter lowered or raised; inactive = no hit", "note": "The screen tested about 24,000 reagents; this is an unselected part of those that have a named target and a result. In the full data, 246 (1%) are marked active. 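Plates not normalised; calls are printed but the firefly/Renilla ratio behind them is not deposited; fold cut for lowering reported inconsistently.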 Raw values vary from plate to plate and are shown uncorrected. Reagents against one gene are numbered here. No sequences are given here. The record does not give: the amount of reagent."}
{"gene knocked down":"CG33230","reagent":1,"firefly reporter light, replicate 1":6.42e5,"firefly reporter light, replicate 2":8.19e5,"Renilla control light, replicate 1":1.11e6,"Renilla control light, replicate 2":1.19e6,"call":"inactive"}
{"gene knocked down":"Hsc70-3 (Heat shock protein 70 cognate 3)","reagent":1,"firefly reporter light, replicate 1":2.43e5,"firefly reporter light, replicate 2":2.96e5,"Renilla control light, replicate 1":2.21e6,"Renilla control light, replicate 2":2.14e6,"call":"inactive"}
{"gene knocked down":"Hsc70-3 (Heat shock protein 70 cognate 3)","reagent":2,"firefly reporter light, replicate 1":3.51e5,"firefly reporter light, replicate 2":3.86e5,"Renilla control light, replicate 1":3.70e5,"Renilla control light, replicate 2":4.19e5,"call":"inactive"}
{"gene knocked down":"Glut1 (Glucose transporter 1)","reagent":1,"firefly reporter light, replicate 1":1.16e5,"firefly reporter light, replicate 2":1.80e5,"Renilla control light, replicate 1":3.05e5,"Renilla control light, replicate 2":3.68e5,"call":"inactive"}
{"gene knocked down":"Glut1 (Glucose transporter 1)","reagent":2,"firefly reporter light, replicate 1":61741,"firefly reporter light, replicate 2":87550,"Renilla control light, replicate 1":8.88e5,"Renilla control light, replicate 2":9.06e5,"call":"inactive"}
{"gene knocked down":"Glut1 (Glucose transporter 1)","reagent":3,"firefly reporter light, replicate 1":1.24e6,"firefly reporter light, replicate 2":1.49e6,"Renilla control light, replicate 1":2.19e6,"Renilla control light, replicate 2":2.00e6,"call":"inactive"}
{"gene knocked down":"Glut1 (Glucose transporter 1)","reagent":4,"firefly reporter light, replicate 1":2.74e5,"firefly reporter light, replicate 2":2.67e5,"Renilla control light, replicate 1":7.35e5,"Renilla control light, replicate 2":7.45e5,"call":"inactive"}
{"gene knocked down":"Glut1 (Glucose transporter 1)","reagent":5,"firefly reporter light, replicate 1":1.06e6,"firefly reporter light, replicate 2":9.08e5,"Renilla control light, replicate 1":2.45e6,"Renilla control light, replicate 2":2.76e6,"call":"inactive"}
{"gene knocked down":"tara (taranis)","reagent":1,"firefly reporter light, replicate 1":4.89e5,"firefly reporter light, replicate 2":7.07e5,"Renilla control light, replicate 1":2.04e5,"Renilla control light, replicate 2":3.31e5,"call":"inactive"}
{"gene knocked down":"tara (taranis)","reagent":2,"firefly reporter light, replicate 1":3.53e5,"firefly reporter light, replicate 2":2.65e5,"Renilla control light, replicate 1":6.71e5,"Renilla control light, replicate 2":6.71e5,"call":"inactive"}
{"gene knocked down":"Ser8","reagent":1,"firefly reporter light, replicate 1":94136,"firefly reporter light, replicate 2":96762,"Renilla control light, replicate 1":1.77e6,"Renilla control light, replicate 2":1.77e6,"call":"inactive"}
{"gene knocked down":"Ser8","reagent":2,"firefly reporter light, replicate 1":4.05e5,"firefly reporter light, replicate 2":3.30e5,"Renilla control light, replicate 1":5.92e5,"Renilla control light, replicate 2":3.06e5,"call":"inactive"}

Copied from the listing, 3 entries:
{"gene knocked down":"Glut1 (Glucose transporter 1)","reagent":3,"firefly reporter light, replicate 1":1.24e6,"firefly reporter light, replicate 2":1.49e6,"Renilla control light, replicate 1":2.19e6,"Renilla control light, replicate 2":2.00e6,"call":"inactive"}
{"gene knocked down":"Glut1 (Glucose transporter 1)","reagent":4,"firefly reporter light, replicate 1":2.74e5,"firefly reporter light, replicate 2":2.67e5,"Renilla control light, replicate 1":7.35e5,"Renilla control light, replicate 2":7.45e5,"call":"inactive"}
{"gene knocked down":"Glut1 (Glucose transporter 1)","reagent":5,"firefly reporter light, replicate 1":1.06e6,"firefly reporter light, replicate 2":9.08e5,"Renilla control light, replicate 1":2.45e6,"Renilla control light, replicate 2":2.76e6,"call":"inactive"}

More entries follow.
{"gene knocked down":"CG32189","reagent":1,"firefly reporter light, replicate 1":1.47e5,"firefly reporter light, replicate 2":43005,"Renilla control light, replicate 1":2.30e5,"Renilla control light, replicate 2":1.45e5,"call":"inactive"}
{"gene knocked down":"CG32189","reagent":2,"firefly reporter light, replicate 1":2.85e5,"firefly reporter light, replicate 2":3.32e5,"Renilla control light, replicate 1":5.07e5,"Renilla control light, replicate 2":6.06e5,"call":"inactive"}
{"gene knocked down":"Cirl (Calcium-independent receptor for alpha-latrotoxin)","reagent":1,"firefly reporter light, replicate 1":2.74e5,"firefly reporter light, replicate 2":2.82e5,"Renilla control light, replicate 1":1.09e6,"Renilla control light, replicate 2":1.43e6,"call":"active"}
{"gene knocked down":"Cirl (Calcium-independent receptor for alpha-latrotoxin)","reagent":2,"firefly reporter light, replicate 1":3.36e5,"firefly reporter light, replicate 2":5.02e5,"Renilla control light, replicate 1":9.80e5,"Renilla control light, replicate 2":1.34e6,"call":"inactive"}
{"gene knocked down":"dare (defective in the avoidance of repellents)","reagent":1,"firefly reporter light, replicate 1":1.04e6,"firefly reporter light, replicate 2":1.45e6,"Renilla control light, replicate 1":7.72e5,"Renilla control light, replicate 2":1.16e6,"call":"inactive"}
{"gene knocked down":"CG15152","reagent":1,"firefly reporter light, replicate 1":2.51e5,"firefly reporter light, replicate 2":3.05e5,"Renilla control light, replicate 1":2.16e6,"Renilla control light, replicate 2":1.68e6,"call":"inactive"}
{"gene knocked down":"CG32237","reagent":1,"firefly reporter light, replicate 1":2.56e5,"firefly reporter light, replicate 2":1.97e5,"Renilla control light, replicate 1":2.17e6,"Renilla control light, replicate 2":3.89e6,"call":"inactive"}
{"gene knocked down":"CG32237","reagent":2,"firefly reporter light, replicate 1":2.08e5,"firefly reporter light, replicate 2":2.55e5,"Renilla control light, replicate 1":2.27e6,"Renilla control light, replicate 2":3.56e6,"call":"inactive"}
{"gene knocked down":"CG32237","reagent":3,"firefly reporter light, replicate 1":4.64e5,"firefly reporter light, replicate 2":5.28e5,"Renilla control light, replicate 1":1.21e6,"Renilla control light, replicate 2":1.17e6,"call":"inactive"}
{"gene knocked down":"CG2540","reagent":1,"firefly reporter light, replicate 1":82215,"firefly reporter light, replicate 2":58960,"Renilla control light, replicate 1":7.64e5,"Renilla control light, replicate 2":7.09e5,"call":"inactive"}
{"gene knocked down":"Ir56c (Ionotropic receptor 56c)","reagent":1,"firefly reporter light, replicate 1":56516,"firefly reporter light, replicate 2":68818,"Renilla control light, replicate 1":8.34e5,"Renilla control light, replicate 2":9.94e5,"call":"inactive"}
{"gene knocked down":"Ir56c (Ionotropic receptor 56c)","reagent":2,"firefly reporter light, replicate 1":4.69e5,"firefly reporter light, replicate 2":4.75e5,"Renilla control light, replicate 1":6.99e5,"Renilla control light, replicate 2":6.73e5,"call":"inactive"}
{"gene knocked down":"Cpr76Ba (Cuticular protein 76Ba)","reagent":1,"firefly reporter light, replicate 1":87790,"firefly reporter light, replicate 2":49232,"Renilla control light, replicate 1":1.59e6,"Renilla control light, replicate 2":1.42e6,"call":"inactive"}
{"gene knocked down":"Cpr76Ba (Cuticular protein 76Ba)","reagent":2,"firefly reporter light, replicate 1":7.02e5,"firefly reporter light, replicate 2":3.16e5,"Renilla control light, replicate 1":3.03e6,"Renilla control light, replicate 2":1.34e6,"call":"inactive"}
{"gene knocked down":"CG1847","reagent":1,"firefly reporter light, replicate 1":1.06e5,"firefly reporter light, replicate 2":1.07e5,"Renilla control light, replicate 1":7.78e5,"Renilla control light, replicate 2":8.44e5,"call":"inactive"}
